For this experiment, the target named is USP14 (human (endogenous in LoVo and SW48)) (UniProt P54578). Briefly: affinity purification with mass spectrometry; immunoprecipitation with USP14-specific antibodies (IgG as control), silver staining and mass spectrometry; cells not given.

Amino acid sequences for entries named in this document (tags omitted).
UniProt P54578: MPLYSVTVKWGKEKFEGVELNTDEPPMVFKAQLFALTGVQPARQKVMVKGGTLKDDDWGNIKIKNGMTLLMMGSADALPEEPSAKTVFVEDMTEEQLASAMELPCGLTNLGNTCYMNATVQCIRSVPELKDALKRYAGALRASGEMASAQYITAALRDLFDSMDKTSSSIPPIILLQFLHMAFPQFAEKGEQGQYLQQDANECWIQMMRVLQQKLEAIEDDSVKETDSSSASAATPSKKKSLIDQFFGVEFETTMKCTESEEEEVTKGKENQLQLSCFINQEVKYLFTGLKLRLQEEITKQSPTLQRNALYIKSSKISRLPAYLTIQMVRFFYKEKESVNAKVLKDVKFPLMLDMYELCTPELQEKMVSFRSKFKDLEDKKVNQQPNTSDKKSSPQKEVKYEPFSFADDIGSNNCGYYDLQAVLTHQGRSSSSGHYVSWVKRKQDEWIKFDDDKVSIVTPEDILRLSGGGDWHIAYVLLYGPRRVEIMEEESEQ

Results are given in words; binding and its absence hold for the method and conditions named. In cells and extracts the contact can be indirect. Here binding means that the protein was enriched with, or labelled near, the bait; the list need not be complete.

B1: BAG4 (protein, UniProt O95429 1-457)
chain: MSALRRSGYGPSDGPSYGRYYGPGGGDVPVHPPPPLYPLRPEPPQPPISWRVRGGGPAETTWLGEGGGGDGYYPSGGAWPEPGRAGGSHQEQPPYPSYNSNYWNSTARSRAPYPSTYPVRPELQGQSLNSYTNGAYGPTYPPGPGANTASYSGAYYAPGYTQTSYSTEVPSTYRSSGNSPTPVSRWIYPQQDCQTEAPPLRGQVPGYPPSQNPGMTLPHYPYGDGNRSVPQSGPTVRPQEDAWASPGAYGMGGRYPWPSSAPSAPPGNLYMTESTSPWPSSGSPQSPPSPPVQQPKDSSYPYSQSDQSMNRHNFPCSVHQYESSGTVNNDDSDLLDSQVQYSAEPQLYGNATSDHPNNQDQSSSLPEECVPSDESTPPSIKKIIHVLEKVQYLEQEVEEFVGKKTDKAYWLLEEMLTKELLELDSVETGGQDSVRQARKEAVCKIQAILEKLEKKGL
B1: the binding entry is given as “binds”.

The record behind these values is paper PMC12048998.
